In the supplement of paper PMC7646827:
Structures can show the parent of a compound that is named as a salt. Many values rest on one well or one pass, so single values are uncertain.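 All cells are established human bladder cancer lines, one derived from a patient-derived xenograft. A luminescent ATP assay measured viability as percent inhibition relative to vehicle across seven dilutions. The paper rates scores above 59 very active, 30–59 active, 21–29 semi-active, 9–20 low active, below 9 inactive.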

What was measured:
Assay in all cases: drug sensitivity score DSS3 (score 0-100); higher = more sensitive; extreme values may be limits of the assay
Details in all cases: culture: 3D, ultra-low attachment; treatment time: 5 days
5637 = tested on: 5637
BC8149 = tested on: BC8149
J82 = tested on: J82
SW780 = tested on: SW780
T-24 = tested on: T-24
TCCSUP = tested on: TCCSUP
UM-UC-12 = tested on: UM-UC-12
UM-UC-14 = tested on: UM-UC-14
UM-UC-15 = tested on: UM-UC-15
UM-UC-17 = tested on: UM-UC-17
UM-UC-18 = tested on: UM-UC-18
UM-UC-1 = tested on: UM-UC-1
UM-UC-3 = tested on: UM-UC-3
UM-UC-5 = tested on: UM-UC-5
UM-UC-6 = tested on: UM-UC-6
UM-UC-9 = tested on: UM-UC-9
SCaBER = tested on: SCaBER

SMILES | drug sensitivity score DSS3 5637 | drug sensitivity score DSS3 (BC8149) | drug sensitivity score DSS3 (J82) | drug sensitivity score DSS3 (SW780) | drug sensitivity score DSS3 (T-24) | drug sensitivity score DSS3 (TCCSUP) | drug sensitivity score DSS3 (UM-UC-12) | drug sensitivity score DSS3 (UM-UC-14) | drug sensitivity score DSS3 (UM-UC-15) | drug sensitivity score DSS3 (UM-UC-17) | drug sensitivity score DSS3 (UM-UC-18) | drug sensitivity score DSS3 (UM-UC-1) | drug sensitivity score DSS3 (UM-UC-3) | drug sensitivity score DSS3 (UM-UC-5) | drug sensitivity score DSS3 (UM-UC-6) | drug sensitivity score DSS3 (UM-UC-9) | drug sensitivity score DSS3 (SCaBER)
CO[C@@H](C(=O)N1Cc2[nH]nc(NC(=O)c3ccc(N4CCN(C)CC4)cc3)c2C1)c1ccccc1 (max dose 10000 nM) | 50.5 | 7.8 | 0 | 0.384 | 0.557 | 59.8 | 3.96 | 15.7 | 1.42 | 4 | 0 | 14.9 | 0.44 | 0 | 15.4 | 0 | –
CC(=O)N1CCN(CCOc2ccc(C3CCN(C4=Nn5c(nnc5C(F)(F)F)CC4)CC3)cc2)CC1 [AZD3514] (max dose 10000 nM) | 6.41 | 0.166 | 0 | 0.0197 | 0 | 0.976 | 0 | 1.54 | 0 | 0.853 | 0 | 0.694 | 1.12 | 0 | 0 | 2.24 | –
COc1ccc2c(Oc3ccc(NC(=O)c4c(C)n(CC(C)(C)O)n(-c5ccccc5)c4=O)nc3)ccnc2c1 [AMG-458] (max dose 10000 nM) | 0 | – | 0 | 0 | 0 | 0.0429 | 0 | 0 | 0 | 0.0479 | 1.4 | 0 | 0.358 | 0 | 0 | 0 | 0
Cc1ccc(C(=O)N(CCCN)[C@@H](c2nc3cc(Cl)ccc3c(=O)n2Cc2ccccc2)C(C)C)cc1 (max dose 10000 nM) | 70.3 | 20.6 | 0 | 6.69 | 1.78 | 65.8 | 43.2 | 44 | 0 | 62.1 | 31.1 | 46.7 | 29.6 | – | 21.5 | 0 | –
Cc1ccc(Nc2nccc(N(C)c3ccc4c(C)n(C)nc4c3)n2)cc1S(N)(=O)=O [Pazopanib] (max dose 10000 nM) | 1.97 | – | 0 | 0 | 12.5 | – | 0 | 0 | 29.4 | 0 | 0.438 | – | 0 | 0 | 0 | – | 0
COc1cc2c(NC3CCN(C(C)C)CC3)nc(N3CCC(F)(F)CC3)nc2cc1OCCCN1CCCC1 [UNC0642] (max dose 10000 nM) | 18.6 | – | 0 | 0 | 0 | 9.04 | 0 | 0 | 0 | 8.59 | 1.89 | 0 | 5.97 | 0 | 0 | 0 | 0
CCNC(=O)Nc1ccc(-c2nc3c(c(N4CCOC[C@@H]4C)n2)CCN(C2COC2)C3)cc1 [GDC-0349] (max dose 10000 nM) | – | 30.6 | 1.54 | 6.36 | 0 | 29.2 | – | 5.33 | 0.526 | 0 | 19.9 | 10.2 | 7.1 | 11.7 | 5.71 | 8.09 | –
CC1=C(C(=O)Nc2cc3cn[nH]c3cc2F)C(c2ccc(C(F)(F)F)cc2)CC(=O)N1 (stereo not given) (max dose 10000 nM) | 10.6 | – | 22 | 0 | 0 | 6.29 | – | – | 0 | 3.42 | – | 46.5 | 22.5 | 11.5 | – | 12.3 | 0
CCCCCCCCc1ccc(CCC(N)(CO)CO)cc1 [Fingolimod (FTY720) HCl] (max dose 10000 nM) | 0.0708 | 0 | 0 | 0 | 0 | 0.0495 | 0.883 | 0.0405 | 21.7 | 0 | 0 | 0 | 4.57 | 2.31 | 0 | 0.0226 | –
CS(=O)(=O)c1cccc(CNc2nc(Nc3ccc4c(c3)CCC(=O)N4)ncc2C(F)(F)F)c1 (max dose 10000 nM) | 0 | 0 | 0 | 0.0177 | 9.78 | 4.23 | 1.28 | 1.43 | 0 | 0 | 0.00633 | 0.305 | 0 | 0 | 0 | 0 | –
CCN(CC)CC(O)CNc1ccc(NCC2CO2)c2c1C(=O)c1ccccc1C2=O (stereo not given) [BDA-366] (max dose 10000 nM) | 42.7 | – | – | – | 10.5 | 10.8 | 25.3 | 8.4 | 0 | 12 | 28.7 | 37.5 | 51 | 3.93 | 26.4 | 25.9 | 28.4
O=c1[nH]cc(F)c(=O)[nH]1 [5-FU, Fluorouracil (5-Fluoracil, 5-FU)] (max dose 10000 nM) | 6.45 | 7.47 | 2.19 | 3.77 | 1.59 | 18 | 2.53 | 15.2 | 10.7 | 14.6 | 30.1 | 5.37 | 11 | 0 | 2.76 | 4.33 | –
C=CCc1cccc(/C=N/NC(=O)CN2CCN(Cc3ccccc3)CC2)c1O [PAC-1] (max dose 10000 nM) | 0.546 | 2.2 | 0 | 0.0304 | 1.44 | – | 1.72 | 0 | 0 | 0 | 0 | 0 | 4.15 | 1.25 | 0 | 0.361 | –
